PMC2672614
No constants are given. Whether binding was seen depends on the method and setting. Binding seen in cells or lysates may run through a third protein. A yes stands for co-enrichment or nearness to the bait. Other partners may have been found.

Protein sequences, listed by entry. Tags and fused reporters are not part of them.
UniProt P0A8N5: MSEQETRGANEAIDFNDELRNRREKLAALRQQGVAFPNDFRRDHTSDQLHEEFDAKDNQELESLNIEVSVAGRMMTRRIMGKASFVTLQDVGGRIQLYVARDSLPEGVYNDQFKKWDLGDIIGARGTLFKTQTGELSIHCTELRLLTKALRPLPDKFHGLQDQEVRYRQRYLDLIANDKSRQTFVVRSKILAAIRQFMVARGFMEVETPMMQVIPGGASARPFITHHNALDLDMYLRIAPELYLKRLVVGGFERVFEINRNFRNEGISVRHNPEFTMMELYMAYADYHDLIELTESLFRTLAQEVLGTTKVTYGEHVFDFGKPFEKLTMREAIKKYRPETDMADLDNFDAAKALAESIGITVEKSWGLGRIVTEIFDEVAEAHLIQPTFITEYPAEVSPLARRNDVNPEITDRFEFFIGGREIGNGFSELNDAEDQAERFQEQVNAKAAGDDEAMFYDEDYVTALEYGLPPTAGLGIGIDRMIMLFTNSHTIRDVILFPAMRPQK

Biological target: T1, YagJ (E. coli K-12 W3110 (endogenous in DY330)) (UniProt P77169)
T1 sequence: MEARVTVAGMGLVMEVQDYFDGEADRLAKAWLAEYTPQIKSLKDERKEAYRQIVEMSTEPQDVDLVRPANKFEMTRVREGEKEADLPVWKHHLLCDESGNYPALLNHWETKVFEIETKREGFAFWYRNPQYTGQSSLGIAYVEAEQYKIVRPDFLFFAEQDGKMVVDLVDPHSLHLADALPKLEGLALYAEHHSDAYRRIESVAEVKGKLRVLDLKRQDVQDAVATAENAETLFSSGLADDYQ
Assay: affinity purification with mass spectrometry; chromosomal C-terminal SPA tag (three FLAG sequences and a calmodulin-binding peptide separated by a protease cleavage site) on the bait in E. coli DY330 (W3110 background); tandem-affinity purification of endogenous complexes under standard culture conditions; copurifying proteins detected by LCMS and MALDI; pairs filtered at confidence >=0.75

Substance: lysine tRNA synthetase (LysU) (from UniProt P0A8N5 1-505) (enzyme)
- binding: binds
